{"source": "PubChem BioAssay AID504791 (Drosophila RNAi Screening Center, 2011)", "test": "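Factors in Argonaute-based small RNA production and activity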 (primary screen)", "system": "Drosophila S2-derived reporter cells", "reagents": "long dsRNA against Drosophila genes, about 150-250 ng dsRNA per well (siRNA assay); about 80-120 ng (miRNA assay)", "time to read-out": "about 5 days (siRNA assay); about 4 days (miRNA assay)", "treatment": "copper sulfate induction of reporters: 25 µM (siRNA assay); 200 mM stated (miRNA assay), 1-2 days before reading", "detection": "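Dual luciferase assay: Renilla to firefly signal ratio in each well, scaled to the mean ratio of its plate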", "active means": "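First-pass picks had plate-scaled ratios over 1.5 for the siRNA assay, over 1.6 for the miRNA assay, or under 0.6; two distinct dsRNAs had to score alike on retest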", "note": "The screen tested about 23,000 reagents; below is a random part of those that have a named target and a result. In the full data, 199 (0.86%) got an active call. 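Plate-scaled ratios behind the calls are not deposited; printed light signals are raw; many rows marked increased or decreased are still called inactive.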 The numbers tell different reagents against one gene apart. A plus sign joins genes that one reagent is predicted to hit. Not given: the direction of the score."}
{"Gene":"Flad1 (Flavin adenine dinucleotide synthetase 1)","dsRNA no.":1,"stable assay Renilla, run 1 (luminescence)":7302,"stable assay firefly, run 1 (luminescence)":4.07e5,"Outcome":"inactive"}
{"Gene":"Camta (Calmodulin-binding transcription activator)","dsRNA no.":1,"stable assay Renilla, run 1 (luminescence)":5075,"stable assay firefly, run 1 (luminescence)":2.57e5,"Outcome":"inactive"}
{"Gene":"Camta (Calmodulin-binding transcription activator)","dsRNA no.":2,"stable assay Renilla, run 1 (luminescence)":3276,"stable assay firefly, run 1 (luminescence)":2.03e5,"Outcome":"inactive"}
{"Gene":"Camta (Calmodulin-binding transcription activator)","dsRNA no.":3,"stable assay Renilla, run 1 (luminescence)":7862,"stable assay firefly, run 1 (luminescence)":4.46e5,"Outcome":"inactive"}
{"Gene":"Camta (Calmodulin-binding transcription activator)","dsRNA no.":4,"stable assay Renilla, run 1 (luminescence)":4935,"stable assay firefly, run 1 (luminescence)":3.48e5,"Outcome":"inactive"}
{"Gene":"Camta (Calmodulin-binding transcription activator)","dsRNA no.":5,"stable assay Renilla, run 1 (luminescence)":4136,"stable assay firefly, run 1 (luminescence)":2.83e5,"Outcome":"inactive"}
{"Gene":"Camta (Calmodulin-binding transcription activator)","dsRNA no.":6,"miRNA reporter change":"reporter ratio lowered past the hit cutoff","Outcome":"inactive"}
{"Gene":"CG14102","dsRNA no.":1,"stable assay Renilla, run 1 (luminescence)":7327,"stable assay firefly, run 1 (luminescence)":3.45e5,"Outcome":"inactive"}
{"Gene":"RpS15Ab + RpS15Aa","dsRNA no.":1,"stable assay Renilla, run 1 (luminescence)":6271,"stable assay firefly, run 1 (luminescence)":3.20e5,"Outcome":"inactive"}
{"Gene":"RpS15Ab + RpS15Aa","dsRNA no.":2,"stable assay Renilla, run 1 (luminescence)":4588,"stable assay firefly, run 1 (luminescence)":2.78e5,"Outcome":"inactive"}
{"Gene":"Ccp84Ag","dsRNA no.":1,"stable assay Renilla, run 1 (luminescence)":7324,"stable assay firefly, run 1 (luminescence)":5.15e5,"Outcome":"inactive"}
{"Gene":"Ccp84Ag","dsRNA no.":2,"stable assay Renilla, run 1 (luminescence)":7955,"stable assay firefly, run 1 (luminescence)":4.50e5,"Outcome":"inactive"}
{"Gene":"Tace","dsRNA no.":1,"stable assay Renilla, run 1 (luminescence)":7918,"stable assay firefly, run 1 (luminescence)":5.69e5,"Outcome":"inactive"}
{"Gene":"m-cup (mann-cup)","dsRNA no.":1,"stable assay Renilla, run 1 (luminescence)":6891,"stable assay firefly, run 1 (luminescence)":3.48e5,"Outcome":"inactive"}
{"Gene":"dysc (dyschronic)","dsRNA no.":1,"stable assay Renilla, run 1 (luminescence)":5028,"stable assay firefly, run 1 (luminescence)":3.37e5,"Outcome":"inactive"}
{"Gene":"dysc (dyschronic)","dsRNA no.":2,"stable assay Renilla, run 1 (luminescence)":7907,"stable assay firefly, run 1 (luminescence)":5.98e5,"Outcome":"inactive"}
{"Gene":"dysc (dyschronic)","dsRNA no.":3,"stable assay Renilla, run 1 (luminescence)":8429,"stable assay firefly, run 1 (luminescence)":5.32e5,"Outcome":"inactive"}
{"Gene":"dysc (dyschronic)","dsRNA no.":4,"stable assay Renilla, run 1 (luminescence)":4759,"stable assay firefly, run 1 (luminescence)":4.68e5,"Outcome":"inactive"}
{"Gene":"phol (pleiohomeotic like)","dsRNA no.":1,"stable assay Renilla, run 1 (luminescence)":7515,"stable assay firefly, run 1 (luminescence)":3.51e5,"Outcome":"inactive"}

2 of these entries, set out differently:
dysc (dyschronic) #3 — stable assay Renilla, run 1 (luminescence): 8429; stable assay firefly, run 1 (luminescence): 5.32e5; Outcome: inactive
dysc (dyschronic) #4 — stable assay Renilla, run 1 (luminescence): 4759; stable assay firefly, run 1 (luminescence): 4.68e5; Outcome: inactive
